Assay results as given in publication PMC7819943, “Rice protein-binding microarrays: a tool to detect cis-acting elements near promoter regions in rice”.
Some of the results follow.

molecular target: T1, OsSMF1 (Oryza sativa, UniProt Q6ZLB0 1-436); assay: protein-binding microarray (RPBM); PBS, 2% BSA, 51.3 ng/ul salmon testes DNA, 50 uM zinc acetate, 200 nM TF, 25 C, 1 h; high values mean tight binding; details: protein: recombinant; tags: N-terminal polyhistidine and DsRed monomer fusion (pET32a); chain copies: 2; label: CyDye5-dUTP incorporated in the synthesized complementary strand; 3' TTTTT single-stranded linker to array surface; dsDNA, one strand shown
T1 sequence: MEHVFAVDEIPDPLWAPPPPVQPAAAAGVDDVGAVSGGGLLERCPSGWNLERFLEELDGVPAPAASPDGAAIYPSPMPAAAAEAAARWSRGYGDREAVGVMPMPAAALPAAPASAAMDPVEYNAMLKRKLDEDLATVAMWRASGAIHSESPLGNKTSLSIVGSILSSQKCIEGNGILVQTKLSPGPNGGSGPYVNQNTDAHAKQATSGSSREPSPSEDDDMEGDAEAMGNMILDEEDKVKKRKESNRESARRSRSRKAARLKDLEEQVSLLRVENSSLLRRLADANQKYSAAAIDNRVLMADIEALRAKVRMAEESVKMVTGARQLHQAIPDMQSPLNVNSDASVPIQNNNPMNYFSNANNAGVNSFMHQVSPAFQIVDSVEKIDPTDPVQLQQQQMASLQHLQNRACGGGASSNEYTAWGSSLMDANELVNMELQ
Method in brief: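 The binding signal for each feature is its fluorescence intensity in arbitrary units. An Axon 4000B scanner was used to read a custom Agilent array that had been made double-stranded with Cy5-dUTP primer extension, blocked with 2% BSA, incubated at 25 °C for 1 h with 200 nM protein in PBS, 2% BSA, salmon testes DNA and 50 µM zinc acetate, and washed. The protein was an N-terminal polyhistidine–DsRed transcription factor fusion from E. coli BL21-CodonPlus, purified on Ni–NTA.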

Sequence	binding signal
TCGCCTCAAGTGCACTTAGCTTCACACTGTACACGTCATACGGAGTCACCTAGTGCAG	15700 fluorescence intensity (a.u.)
ACTTGCCACGGTGCCGCCTAACAGGCAGCCGTACCTGCCTCGGAGTCACCTAGTGCAG	3320 fluorescence intensity (a.u.)
TGTATGTCGGGTTGTCGATGATCAAGCCAGTGACACGCTTCGGAGTCACCTAGTGCAG	4000 fluorescence intensity (a.u.)
AACTGGCACCTATAGACCTTTTCCCACCTCTGCGGGTTAACGGAGTCACCTAGTGCAG	36500 fluorescence intensity (a.u.)
TTAGTGGCGCCTGTTTTCTTGTAACGGTGTGACCTGTTGCCGGAGTCACCTAGTGCAG	29300 fluorescence intensity (a.u.)
AATTTGTGCATATGTGAGCGTGGTGTGATGTGTCGTGGGTCGGAGTCACCTAGTGCAG	6090 fluorescence intensity (a.u.)
GTGATGTCTTATTGACATGACATCATAGACACTACTTATACGGAGTCACCTAGTGCAG	3960 fluorescence intensity (a.u.)
GGTCGCCGGATCGCGGGAGGGAGGGAGGGAGGGAGGGAGGCGGAGTCACCTAGTGCAG	5460 fluorescence intensity (a.u.)
CTCTCCTCTCCTCTTGGTGATGACTGATCGATGACCACCACGGAGTCACCTAGTGCAG	4680 fluorescence intensity (a.u.)
CTGCAGTACAACAAACATGATAGTACTTGAAATCATCTTGCGGAGTCACCTAGTGCAG	27400 fluorescence intensity (a.u.)
CGAAGGAGGCGTGGGACTCGGTGAAGAAGATGCGAGCCGGCGGAGTCACCTAGTGCAG	4950 fluorescence intensity (a.u.)
TCCTTGCACTGTTGCTGCTGCTGATGCTTCACGTCGTCCGCGGAGTCACCTAGTGCAG	3310 fluorescence intensity (a.u.)
GCCTTGGCGCTGACGCTGAGAGCCCCGAGCCGTAACAAACCGGAGTCACCTAGTGCAG	3340 fluorescence intensity (a.u.)
GGGGATCCTGGTGAGCATCCACATCCTCTTTCTGATTCATCGGAGTCACCTAGTGCAG	4650 fluorescence intensity (a.u.)
CGGCTGCTGGCTATATTATGTCCACATCATTTTACAGCTACGGAGTCACCTAGTGCAG	6030 fluorescence intensity (a.u.)
CTCGGATCGACCAAGCTGCTCCGCATCTGTATGACGATGACGGAGTCACCTAGTGCAG	3900 fluorescence intensity (a.u.)
AATGTATGAACAAGTGAAACAAAACATATCCATGAGTCGACGGAGTCACCTAGTGCAG	4200 fluorescence intensity (a.u.)
GCCCTCGCCTCTGACCAGCGGGCCCCACACGTCAGCCAGACGGAGTCACCTAGTGCAG	9920 fluorescence intensity (a.u.)
GGCCCAACTAGGCCCACCCTTCCGACACGTGTCCCTCCCCCGGAGTCACCTAGTGCAG	14500 fluorescence intensity (a.u.)
GCTATTTATTAAGAATATATAGGACTCTAGCTACCAGATACGGAGTCACCTAGTGCAG	35100 fluorescence intensity (a.u.)
TTTATTTGATGATTGGTATTCTATGGTTACTTTCCCAGGGCGGAGTCACCTAGTGCAG	3430 fluorescence intensity (a.u.)
GCAAGCGAAATTTCAAAGCCATGTCAGCCAGTGAATAAATCGGAGTCACCTAGTGCAG	5170 fluorescence intensity (a.u.)
ATGTCAATTTCCATAGCGTTAGCATGTGACGTCAAATCGCCGGAGTCACCTAGTGCAG	5660 fluorescence intensity (a.u.)
CTAGGACTCTGTCCACAGGTTCCACGTTCCTGATATGGTTCGGAGTCACCTAGTGCAG	4860 fluorescence intensity (a.u.)
TAGTGTGACATCGATAGCAATGCGAGGCCACGTACCAACCCGGAGTCACCTAGTGCAG	4210 fluorescence intensity (a.u.)
GTGGTCCGGTGGTGGGGTGATGGGGCGTGGCGGTTCTGTCCGGAGTCACCTAGTGCAG	5300 fluorescence intensity (a.u.)
TAGAGTGATATATTACATATCAATTTATCTTGTTAATTTTCGGAGTCACCTAGTGCAG	3340 fluorescence intensity (a.u.)

Copied from the list:
binding signal with CTCTCCTCTCCTCTTGGTGATGACTGATCGATGACCACCACGGAGTCACCTAGTGCAG is entered as 4680 fluorescence intensity (a.u.)
binding signal with CTCGGATCGACCAAGCTGCTCCGCATCTGTATGACGATGACGGAGTCACCTAGTGCAG is entered as 3900 fluorescence intensity (a.u.)

(list continues)

Sequence	binding signal
ATGATAAATGGATTACTTACATGACGTTTGCCTATCGATCCGGAGTCACCTAGTGCAG	5440 fluorescence intensity (a.u.)
GCATGACGGATGGACGCGCCGCCTCGTTGGAATCCGGTCTCGGAGTCACCTAGTGCAG	3370 fluorescence intensity (a.u.)
CTGAAGTCTCTGAATCTGACACTCACGCTGACCAGATTAACGGAGTCACCTAGTGCAG	3740 fluorescence intensity (a.u.)
AATCCTCCGTATATTTCACCAAGCCCTAACACGGACAAAACGGAGTCACCTAGTGCAG	3300 fluorescence intensity (a.u.)
CGTATACCTCGGAGAAGTTCTCATCCGCTGACGTGTCCCGCGGAGTCACCTAGTGCAG	23000 fluorescence intensity (a.u.)
GGCCCACATATCAGTGACTCAACTACACAGCAGTTAAGTCCGGAGTCACCTAGTGCAG	4050 fluorescence intensity (a.u.)
CATGTGTACATTGATACTACTGCCATGACGTCGTGTGCAACGGAGTCACCTAGTGCAG	3480 fluorescence intensity (a.u.)
TTTTAACGGAGGGAAGAGAGTACGTGTGACGTGGGTGCACCGGAGTCACCTAGTGCAG	10200 fluorescence intensity (a.u.)
ATGTGTGTGTGTGTGTGTGTCGCTGTACTGCCTTCCGTCTCGGAGTCACCTAGTGCAG	3890 fluorescence intensity (a.u.)
TTTCTATGCAGATCACAAGATTATGACTATGCTAGCGCTACGGAGTCACCTAGTGCAG	3200 fluorescence intensity (a.u.)
CAACCACATCACAGCACTGATCCCTGCGTGTGAAGCGAAGCGGAGTCACCTAGTGCAG	3270 fluorescence intensity (a.u.)
ACCTCTAGTATATAGCTGACACGATGACTACTCTGCTTCTCGGAGTCACCTAGTGCAG	8080 fluorescence intensity (a.u.)
CCTTTGCTACTTACATCACTGGGTTGAAACTTGATTCCCACGGAGTCACCTAGTGCAG	3180 fluorescence intensity (a.u.)
AGTTTATCAAAGCTGCACATCTATCTGATGATGACACTTCCGGAGTCACCTAGTGCAG	4160 fluorescence intensity (a.u.)
TTTAGCATTGCCACATAATCAATCAGACGCACTTGAAAGTCGGAGTCACCTAGTGCAG	3740 fluorescence intensity (a.u.)
GTGAGGGTTTGGGCCCGTCACAGGTGACCTTGACCAGTGTCGGAGTCACCTAGTGCAG	3190 fluorescence intensity (a.u.)
GGCAGAAGTATAATTTCACAAATCAAAGGACAGAGTGACTCGGAGTCACCTAGTGCAG	3820 fluorescence intensity (a.u.)
TTTCAATTATTTAGGTATTAACATTAACTACTTTACTAACCGGAGTCACCTAGTGCAG	14800 fluorescence intensity (a.u.)
AAGTCATACGTGGTTCCTATATGAGTCGTGTCGTGTGTACCGGAGTCACCTAGTGCAG	7450 fluorescence intensity (a.u.)
TGCGGACTACGTCAAGCTGACGTCATCTCCGACCCGACCTCGGAGTCACCTAGTGCAG	54000 fluorescence intensity (a.u.)
CGCCGTCGACACGTGGGGCCCCTCCTCCCGCCGCCGCCGCCGGAGTCACCTAGTGCAG	9020 fluorescence intensity (a.u.)
CAATCCGCCGCCGCCACGCGTCACCGAAAGCCGTCGCCGACGGAGTCACCTAGTGCAG	7810 fluorescence intensity (a.u.)
GGTGGGCGGAGTGGGAGGGGAGGCATCGGCGCCTCGGTGGCGGAGTCACCTAGTGCAG	3620 fluorescence intensity (a.u.)
CGCCTCCATGGTTTTGCGACTTTGCCGTCATTGCTTGATACGGAGTCACCTAGTGCAG	3680 fluorescence intensity (a.u.)
GAGCCGCTCAGCAGCAACCCCTCCTTCATCGGACTCCACGCGGAGTCACCTAGTGCAG	38200 fluorescence intensity (a.u.)
GATGTCATATATCTGGTTTTGTGGTTGGGGTCAATGACAACGGAGTCACCTAGTGCAG	33500 fluorescence intensity (a.u.)
TTTTAGTATATTTATATACTTTGTGCAAGGTGACATGTACCGGAGTCACCTAGTGCAG	3440 fluorescence intensity (a.u.)
